PubChem BioAssay AID1508588 | Peter MacCallum Cancer Centre | 2020
The deposit covers about 18,000 reagents; this is a random part of them. Over the whole deposit, 790 (4.4%) got an active call. 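Calls rest on a combination of fold-change classes in drug and vehicle arms, not all shown here.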 A number with no mark means an inactive call.

Assay: 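Which gene losses make BRAF-mutant melanoma cells more responsive to vemurafenib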 (primary screen)
Cell system: human WM266.4 melanoma cells (BRAF V600 mutant)
Reagents: siRNA pool against human genes, 40 nM
Duration: 96 h from transfection to read-out
Treatment: vemurafenib 300 nM (about IC25), added 48 h after transfection, for 48 h; comparison arm got DMSO vehicle only
Detection: 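Cell gain (DAPI nuclei at end minus before drug, mean of two replicates) and medium lactate by absorbance per cell, both as ratio to non-targeting siRNA, also grouped into fold-change classes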
Scale: cell gain with vemurafenib: higher = more cell gain than with non-targeting siRNA; lactate per cell with vemurafenib: higher = more lactate made per cell
Hit rule: 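Enhancement is called by pairing each knock-down's vehicle-arm and drug-arm fold-change classes for viability or glycolysis; which class combinations qualify is not given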
Calls: active = enhances vemurafenib effect; inactive = no enhancement seen

USP27X (ubiquitin specific peptidase 27 X-linked) showed cell gain with vemurafenib 0.24; lactate per cell with vemurafenib 1.48.
For OXSR1 (oxidative stress responsive kinase 1) the deposit lists cell gain with vemurafenib 1.05; lactate per cell with vemurafenib 1.25.
For ARAF (A-Raf proto-oncogene, serine/threonine kinase) the deposit lists cell gain with vemurafenib 0.67; lactate per cell with vemurafenib 0.8.
BMP3 (bone morphogenetic protein 3) scored cell gain with vemurafenib 0.21; lactate per cell with vemurafenib 1.3.
For CPLX4 (complexin 4) the deposit lists cell gain with vemurafenib 0.6; lactate per cell with vemurafenib 0.76.
Silencing of CDC26 (cell division cycle 26) came out at: cell gain with vemurafenib 0.64; lactate per cell with vemurafenib 0.79.
With knock-down of TOP6BL (TOP6B like initiator of meiotic double strand breaks) the results were cell gain with vemurafenib 0.42; lactate per cell with vemurafenib 1.6.
For RAB7A (RAB7A, member RAS oncogene family), the entry reads cell gain with vemurafenib 0.47; lactate per cell with vemurafenib 1.06.
With knock-down of CLSTN2 (calsyntenin 2), the record shows cell gain with vemurafenib 1.45; lactate per cell with vemurafenib 0.64.
Depletion of NELFA (negative elongation factor complex member A) came out at: cell gain with vemurafenib 0.63; lactate per cell with vemurafenib 0.49.
For TRIB1 (tribbles pseudokinase 1) the deposit lists cell gain with vemurafenib 0.92; lactate per cell with vemurafenib 1.08.
MAGEA2B (MAGE family member A2B) showed cell gain with vemurafenib 0.93; lactate per cell with vemurafenib 0.58.
With knock-down of CLASRP (CLK4 associating serine/arginine rich protein) the results were cell gain with vemurafenib 0.04 (active); lactate per cell with vemurafenib 0.34.
Against SPATA22 (spermatogenesis associated 22), the values are cell gain with vemurafenib 1.05; lactate per cell with vemurafenib 0.54.
With knock-down of DCAF4L2 (DDB1 and CUL4 associated factor 4 like 2), the record shows cell gain with vemurafenib 0.58; lactate per cell with vemurafenib 0.9.
For CLDN14 (claudin 14), the entry reads cell gain with vemurafenib 0.19; lactate per cell with vemurafenib 2.91.
With knock-down of TBATA (thymus, brain and testes associated), the screen gave cell gain with vemurafenib 0.34; lactate per cell with vemurafenib 1.5.
ANP32D (acidic nuclear phosphoprotein 32 family member D) gave cell gain with vemurafenib 0.82; lactate per cell with vemurafenib 1.32.
OXR1 (oxidation resistance 1) scored cell gain with vemurafenib 0.73; lactate per cell with vemurafenib 0.87.
Against MTNAP1 (mitochondrial nucleoid associated protein 1), the values are cell gain with vemurafenib 0.54; lactate per cell with vemurafenib 1.69.
PTGER1 (prostaglandin E receptor 1) scored cell gain with vemurafenib 0.68; lactate per cell with vemurafenib 1.21.
SERPINI2 (serpin family I member 2) gave cell gain with vemurafenib 0.49; lactate per cell with vemurafenib 1.54.
After knock-down of CYB5A (cytochrome b5 type A), the screen gave cell gain with vemurafenib 0.83; lactate per cell with vemurafenib 1.67.
For ZNF225 (zinc finger protein 225) the deposit lists cell gain with vemurafenib 1.02; lactate per cell with vemurafenib 0.72.
DOCK2 (dedicator of cytokinesis 2) scored cell gain with vemurafenib 0.18; lactate per cell with vemurafenib 1.64.
Against GC (GC vitamin D binding protein), the entry reads cell gain with vemurafenib 0.33; lactate per cell with vemurafenib 0.96.
FAM13B (family with sequence similarity 13 member B) gave cell gain with vemurafenib 0.69; lactate per cell with vemurafenib 1.78.

A run of entries from the list above, as a working copy:
OXSR1 (oxidative stress responsive kinase 1): cell gain with vemurafenib = 1.05; lactate per cell with vemurafenib = 1.25
ARAF (A-Raf proto-oncogene, serine/threonine kinase): cell gain with vemurafenib = 0.67; lactate per cell with vemurafenib = 0.8
BMP3 (bone morphogenetic protein 3): cell gain with vemurafenib = 0.21; lactate per cell with vemurafenib = 1.3
CPLX4 (complexin 4): cell gain with vemurafenib = 0.6; lactate per cell with vemurafenib = 0.76
